The target in the assay is T1, platelet endothelial aggregation receptor 1 (PEAR1), mouse (mouse (endogenous in cultured mouse pulmonary fibroblasts)) (UniProt Q8VIK5).
T1 sequence: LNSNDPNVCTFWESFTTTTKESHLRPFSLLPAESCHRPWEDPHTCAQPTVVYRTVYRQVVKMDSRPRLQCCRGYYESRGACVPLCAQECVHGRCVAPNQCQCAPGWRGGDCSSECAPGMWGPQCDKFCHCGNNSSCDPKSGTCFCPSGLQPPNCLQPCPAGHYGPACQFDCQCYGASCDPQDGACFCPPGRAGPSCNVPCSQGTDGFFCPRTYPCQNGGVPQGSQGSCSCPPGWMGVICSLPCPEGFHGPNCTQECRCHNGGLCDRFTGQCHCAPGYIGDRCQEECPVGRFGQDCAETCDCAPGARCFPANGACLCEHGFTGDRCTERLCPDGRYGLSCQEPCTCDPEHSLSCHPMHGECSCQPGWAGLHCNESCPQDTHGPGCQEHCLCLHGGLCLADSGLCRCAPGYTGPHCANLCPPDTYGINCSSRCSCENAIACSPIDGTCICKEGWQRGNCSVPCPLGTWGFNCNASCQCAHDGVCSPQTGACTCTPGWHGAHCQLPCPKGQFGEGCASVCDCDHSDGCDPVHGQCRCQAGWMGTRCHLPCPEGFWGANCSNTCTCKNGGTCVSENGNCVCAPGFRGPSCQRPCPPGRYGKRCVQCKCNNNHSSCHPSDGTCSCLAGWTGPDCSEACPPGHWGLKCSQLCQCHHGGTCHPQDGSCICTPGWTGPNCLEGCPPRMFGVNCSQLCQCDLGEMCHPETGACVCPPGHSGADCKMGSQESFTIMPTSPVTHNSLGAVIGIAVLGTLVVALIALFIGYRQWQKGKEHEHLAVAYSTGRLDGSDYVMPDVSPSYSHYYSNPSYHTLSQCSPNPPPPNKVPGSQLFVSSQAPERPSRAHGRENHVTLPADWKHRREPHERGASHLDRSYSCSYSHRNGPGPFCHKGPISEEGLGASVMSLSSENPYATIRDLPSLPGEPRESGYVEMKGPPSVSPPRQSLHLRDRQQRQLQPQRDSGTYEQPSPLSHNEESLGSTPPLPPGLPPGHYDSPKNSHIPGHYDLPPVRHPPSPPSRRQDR
The experiment in a line: affinity purification with mass spectrometry; immunoprecipitation of mouse fibroblast lysate with PEAR1 antibody, protein mass spectrometry.

Amino acid sequences for entries named in this document (tags omitted).
UniProt P62137: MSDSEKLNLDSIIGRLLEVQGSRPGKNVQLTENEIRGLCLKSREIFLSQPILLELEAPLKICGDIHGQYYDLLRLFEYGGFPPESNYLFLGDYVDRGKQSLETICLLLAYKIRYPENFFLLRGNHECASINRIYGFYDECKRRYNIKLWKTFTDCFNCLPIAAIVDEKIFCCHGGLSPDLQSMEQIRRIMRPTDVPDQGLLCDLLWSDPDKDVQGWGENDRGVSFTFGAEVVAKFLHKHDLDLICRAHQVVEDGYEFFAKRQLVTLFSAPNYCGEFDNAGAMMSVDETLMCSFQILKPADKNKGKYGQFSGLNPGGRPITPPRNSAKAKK

No constants are given. Whether binding was seen depends on the method and setting. Binding seen in cells or lysates may run through a third protein. These calls come from enrichment with a bait or labelling near it, and not all partners need be listed.

As for “protein phosphatase 1 catalytic subunit alpha (PP1α), mouse (from UniProt P62137 1-330) (enzyme)”, the binding entry is given as “binds”.
